# According to PubChem BioAssay AID1671190 (National Center for Advancing Translational Sciences (NCATS), 2021):
# Chains of the proteins cited; added tags and fusions are not shown. Lines headed by an entry give the natural chain unless they say otherwise; changes in a name come on top.
# UniProt P18054: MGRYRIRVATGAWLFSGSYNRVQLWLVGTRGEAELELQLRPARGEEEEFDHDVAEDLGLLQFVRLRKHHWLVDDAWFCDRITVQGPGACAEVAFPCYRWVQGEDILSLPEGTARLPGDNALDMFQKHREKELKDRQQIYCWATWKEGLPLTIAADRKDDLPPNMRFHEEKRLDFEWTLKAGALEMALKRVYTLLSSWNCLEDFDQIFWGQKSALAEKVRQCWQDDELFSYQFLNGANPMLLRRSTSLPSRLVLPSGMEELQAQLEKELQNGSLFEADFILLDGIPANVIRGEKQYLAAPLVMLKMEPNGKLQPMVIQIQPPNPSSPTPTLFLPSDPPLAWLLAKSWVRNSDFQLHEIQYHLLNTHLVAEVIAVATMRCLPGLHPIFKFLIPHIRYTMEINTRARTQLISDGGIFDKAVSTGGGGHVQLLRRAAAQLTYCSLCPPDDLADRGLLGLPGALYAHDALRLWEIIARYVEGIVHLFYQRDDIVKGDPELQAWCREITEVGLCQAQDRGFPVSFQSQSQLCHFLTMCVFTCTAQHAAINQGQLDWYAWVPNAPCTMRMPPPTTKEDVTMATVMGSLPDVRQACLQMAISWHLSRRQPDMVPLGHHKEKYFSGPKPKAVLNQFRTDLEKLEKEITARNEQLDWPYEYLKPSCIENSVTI
# The campaign covered roughly 580,000 compounds. About 6,100 (1.1%) were called active. The shares of active, inactive and inconclusive entries below differ from those in the screen. Calls follow the shape of the dose curve; as a rule, active = well fitted inhibition curve with a large enough effect; inconclusive = small, poorly fitted or top-dose-only effect, or another doubt; inactive = no such curve, though single readings can be large or run the other way. Potencies beside an inconclusive call are fits to weak or partial responses and may not hold up.
# Molecular target: Polyunsaturated fatty acid lipoxygenase ALOX12 (Homo sapiens) (UniProt P18054)
# Assay: Primary qHTS assay for inhibitors of human arachidonate 12S-lipoxygenase (ALOX12): Round 2
# Settings: purified 12hLO, xylenol orange hydroperoxide absorbance; activity change, negative = inhibition: at 108 µM (top of the series) unless noted
# Summary of the method: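 Hydroperoxide product was detected by ferrous iron/xylenol orange as the 573 to 405 nm absorbance ratio. Arachidonic acid at 40 uM (final) was turned over for 30 min at room temperature by 150 nM human 12hLO, pH 7.0 Hepes buffer, after 15 min compound preincubation.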
# % is scaled to controls: 0 for no effect and ±100 for the full control effect; potency is read from the fitted curve at half-maximal effect.
Structure (SMILES),Potency,"activity change, negative = inhibition"
COc1ccc(N2C(=O)C(C)(C)CS2(=O)=O)cc1S(=O)(=O)N1CCc2ccccc21,"inconclusive: 28.2 µM [inhibitor, full curve, poor fit]",
O=C(Cn1nc2c(cc1=O)CCCCC2)Nc1nccs1,"inconclusive: 11.2 µM [inhibitor, full curve]",
CSC1=N/C(=C\c2ccc(OC(C)=O)cc2)C(=O)S1,"inconclusive: 0.282 µM [inhibitor, full curve, poor fit]",
S=C(Nc1ccccc1)Nc1ccc(Cl)cc1Cl,"inconclusive: 44.7 µM [inhibitor, partial curve, poor fit]",
Cc1noc(C)c1S(=O)(=O)N[C@@H]1CN(Cc2ccccc2)C[C@H]1CN(C)C,,inactive: 32.2%
N#CC1(Nc2ccc3c4c(cccc24)CC3)CCCCC1,active: 31.6 µM,
COc1ccc(NC(=O)c2ccc3c(c2)NC(C)(COCC2CC2)CO3)cc1OC (configuration not stated),,inactive: -7.62% [at 176 µM]
CN(C)c1ccc(NC(=S)NC(=O)/C=C/c2ccc(Cl)cc2)cc1,"inconclusive: 28.2 µM [inhibitor, partial curve, poor fit]",
COc1ccc(OCC(O)CN2CCNCC2)cc1 (configuration not stated),"inconclusive: 7.08 µM [inhibitor, full curve]",
C[C@@H]1C[C@@H]2OC(=O)[C@]3(C)[C@H]2[C@@H](OC3(C)O)[C@]2(C)C(=O)C=C[C@H]12 (some centres not stated),,inactive: 2.92%
CCn1c2c(c(=O)n3ncc(C(=O)Nc4ccc(OC(F)(F)F)cc4)c13)CN(Cc1ccc(OC)cc1)CC2,"inconclusive: 44.7 µM [inhibitor, partial curve, poor fit]",
O=C(COc1nc2ccccc2nc1N1CCOCC1)Nc1ccccc1,,inactive: 4.85%
COc1ccc(CCNC(=O)c2c[nH]n3c(=O)c(Cc4ccccc4Cl)c(C)nc23)cc1OC,"inconclusive: 100 µM [inhibitor, partial curve, poor fit]",
COc1ccc(CN(C)C(=O)C2CSC3(C)CCC(=O)N23)cc1OC (configuration not stated),,inactive: 9.74%
C=CCOC(=O)C1=C[C@@H](c2cn(C(C)=O)c3ccccc23)C[C@@H](OCCCCO)O1,"inconclusive: 35.5 µM [inhibitor, partial curve, poor fit]",
CCOc1cc(N2CCOCC2)c(OCC)cc1NS(=O)(=O)c1ccc(Cl)s1,"inconclusive: 35.5 µM [inhibitor, single point]",
O=c1c(Sc2ccccc2)c(C(F)(F)F)[nH]n1-c1ccccc1,"inconclusive: 50.1 µM [inhibitor, partial curve, poor fit]",
Cc1ccc(C(=O)N2CC(c3nnc(-c4ccc(C)cc4)o3)C3(CCOCC3)C2)cc1 (configuration not stated),,inactive: 32.5%
OC(CNc1ccnc2cc(Cl)ccc12)CNC1CCCCC1 (configuration not stated),,inactive: -14.3%
O=C1OC(C(=O)O)Cc2ccccc21 (configuration not stated),,inactive: -22.5%
CCOc1ccc(/C=C/C(=O)c2cc(Br)ccc(=O)c2O)cc1,active: 28.2 µM,

Structure (SMILES),Potency,"activity change, negative = inhibition"
O=S(=O)(N=Cc1c(O)ccc2ccccc12)c1cccs1,"inconclusive: 27.3 µM [inhibitor, single point]",
CCN(CC)CCNC(=O)c1ccc(NC(=O)c2ccc(S(=O)(=O)N3CCCCCC3)cc2)cc1,"inconclusive: 56.2 µM [inhibitor, partial curve, poor fit]",
O=[N+]([O-])c1ccccc1/C=C/C=N/n1c(-c2cc(-c3ccccc3)n[nH]2)n[nH]c1=S,"inconclusive: 89.1 µM [inhibitor, single point]",
O=C(Cn1cc(S(=O)(=O)c2ccc(Cl)cc2)c(=O)c2ccccc21)Nc1ccc2c(c1)OCO2,"inconclusive: 8.91 µM [inhibitor, full curve, poor fit]",
CC1(C)CC(NC(=O)Nc2ccc(OC(F)F)c(Cl)c2)CC(C)(C)N1,,inactive: -16.7%
Nc1nc(Cl)cc(Sc2ccc(F)cc2)n1,"inconclusive: 35.5 µM [inhibitor, partial curve, poor fit]",
Cc1ccc(NC(=O)COc2coc(CN3CCc4ccccc4C3)cc2=O)c(C)c1,"inconclusive: 50.1 µM [inhibitor, partial curve, poor fit]",
Cc1ccc(C)c(S(=O)(=O)Nc2ccc3c(c2)CCCN3C(=O)c2cccs2)c1,,inactive: -2.6%
CCc1ccc(NS(=O)(=O)c2ccc(OC)c3ncccc23)cc1,"inconclusive: 56.2 µM [inhibitor, single point]",
O=C(Nc1ccc(Cl)c(Cl)c1)c1ccc(-c2ccccc2)cc1,"inconclusive: 35.5 µM [inhibitor, partial curve, poor fit]",
COc1ccc(C(=O)N2CC(=O)N(c3ccc(C)cc3)CC2C)c(OC)n1 (configuration not stated),"inconclusive: 28.2 µM [inhibitor, full curve, poor fit]",
Cc1cc(S(=O)(=O)NCc2ccc3c(c2)OCO3)ccc1F,"inconclusive: 0.398 µM [inhibitor, full curve, poor fit]",
O=C(c1cc(-c2ccccc2Cl)nc2ccccc12)N1CCN(c2ccccc2O)CC1,"inconclusive: 89.1 µM [inhibitor, partial curve, poor fit]",
CC[n+]1c(C)sc2cc(C)ccc21,"inconclusive: 44.7 µM [inhibitor, partial curve, poor fit]",
O=C(NC1CCCCC1)C(c1ccc(F)cc1)N(Cc1ccco1)C(=O)CN1C(=O)c2ccccc2S1(=O)=O (configuration not stated),,inactive: 1.53%
COc1cc(OC)cc(C(=O)NCC(=O)N2CCN(c3ccc(O)cc3)CC2)c1,"inconclusive: 50.1 µM [inhibitor, partial curve, poor fit]",
CCc1cc(=O)oc2cc3occ(-c4ccc(OC)c(F)c4)c3cc12,,inactive: -22.2%
CCSC(=O)NC12CC3CC(CC(C3)C1)C2,,inactive: -9.81% [at 57.4 µM]
CNC(=S)N/N=C(\C)c1ccc(C)c(C)c1,"inconclusive: 22.4 µM [inhibitor, partial curve]",
CCn1c(=O)n(C2=C(CO)CN(CC3CCCCCCC3)CC2)c2ccccc21,"inconclusive: 20 µM [inhibitor, partial curve, poor fit]",
O=C(COC(=O)c1ccc(O)cc1)Nc1ccc(N2CCCCC2)cc1,"inconclusive: 158 µM [inhibitor, partial curve, poor fit]",

# Record cards, as listed above:
# Nc1nc(Cl)cc(Sc2ccc(F)cc2)n1 as listed: Potency: inconclusive: 35.5 µM [inhibitor, partial curve, poor fit]
# Cc1ccc(C)c(S(=O)(=O)Nc2ccc3c(c2)CCCN3C(=O)c2cccs2)c1 as listed: activity change, negative = inhibition: inactive: -2.6%
# O=S(=O)(N=Cc1c(O)ccc2ccccc12)c1cccs1 as listed: Potency: inconclusive: 27.3 µM [inhibitor, single point]
